Experimental data published in PubChem BioAssay AID493014 (National Center for Advancing Translational Sciences (NCATS), 2011).
The list shows a part of the results. Shown are side measurements of this screen, not its main read-out; they come without a call. Compounds called inactive in the main read-out are mostly missing here. Potencies come from curve fits of mixed quality, noted in brackets.

Experiment: qHTS Assay to Find Inhibitors of Chronic Active B-Cell Receptor Signaling
Conditions: ABC-DLBCL IkBa-CBG/CBR reporter, luminescence ratio (green luciferase fused to IkBa over red control in TMD8 lymphoma cells), 4 h
Method in brief: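 TMD8 human ABC-DLBCL cells with doxycycline-inducible IκBα–green luciferase fusion and unfused red luciferase, in 0.5% FBS medium; compounds up to 46 uM, 4 h at 37C. Green/red luminescence ratio, filter-overlap corrected, fitted to concentration-response curves.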

[1] = measured here: CBR red luminescence, cell number
[2] = measured here: IkBa-CBG green luminescence

| SMILES | AC50 [1] | AC50 [2] |
| --- | --- | --- |
| Cc1[nH]nc2c1C(c1cn[nH]c1-c1ccc(F)cc1)C(C#N)=C(N)O2 (stereo unspecified) | 12.6 µM [falling, partial curve, poor fit] |  |
| Oc1ccc(N=Nc2ccccc2C(F)(F)F)c2cccnc12 | 11.2 µM [rising, partial curve] |  |
| Cn1c2ccccc2c(=O)c2ccc(C#CC3(N)CCCCC3)cc21 | 25.1 µM [falling, single point] |  |
| C=CCN(CC(=O)NCc1ccc(OC)cc1)C(=O)c1csnn1 | 10.3 µM [rising, partial curve, poor fit] |  |
| CC(=O)Nc1ccc(NC(=O)c2cc(-c3cc(C)cc(C)c3O)n[nH]2)cc1 | 3.98 µM [falling, partial curve, poor fit] |  |
| CCN(CC)c1ccc(S(=O)(=O)N2CCCCC2)cc1NC(=O)C1CSC2(C)CCC(=O)N12 (stereo unspecified) | 7.31 µM [rising, full curve, poor fit] | 20.6 µM [falling, partial curve, poor fit] |
| COC(=O)Nc1ccc(OCc2ccccc2)cc1 | 0.116 µM [rising, full curve, poor fit] |  |
| Cc1ccc(/C=C2\SC(=S)N(CCCC(=O)Nc3cccnc3)C2=O)cc1 | 0.316 µM [falling, full curve] |  |
| NNC(=O)c1oc2nc(-c3ccco3)cc(-c3ccco3)c2c1N | 0.891 µM [falling, full curve, poor fit] |  |
| CCN(C(=O)C1CCN(c2nc(-c3ccc(OC)cc3)no2)CC1)c1ccc(OC)cc1 | 7.08 µM [falling, full curve] |  |
| CCOC(=O)c1ccc(-c2csc(NC(=O)CN3CCC(C)CC3)n2)cc1 | 1.78 µM [rising, partial curve, poor fit] |  |
| Cc1[nH]nc2c1C(c1c[nH]c3ccccc13)C(C#N)=C(N)O2 (stereo unspecified) | 35.5 µM [falling, single point] | 17.8 µM [falling, single point] |
| COCc1[nH]nc2c1C(C1C=CCCC1)C(C#N)=C(N)O2 (stereo unspecified) | 9.2 µM [falling, partial curve] |  |
| CCOc1cc(/C=N/NC(=O)CSc2nnc(C)s2)ccc1OCc1ccccc1Cl | 4.61 µM [rising, full curve, poor fit] |  |
| CCC(C(=O)O)n1c(C(F)(F)F)nc2ccccc21 (stereo unspecified) | 6.51 µM [rising, single point] |  |
| COc1cc(NC(=O)c2ccc3c(c2)OCO3)ccc1NC(=O)c1cccs1 | 14.1 µM [falling, single point] | 11.2 µM [rising, partial curve, poor fit] |
| O=C(CCN1CCOCC1)c1ccc2c(c1)OCCO2 | 13 µM [falling, partial curve, poor fit] | 16.4 µM [rising, partial curve, poor fit] |
| Cc1cc(C(=O)NN=Cc2ccc(-c3ccc(F)cc3)o2)c(C)o1 | 1.64 µM [falling, partial curve] |  |
| Cc1ccc(S(=O)(=O)N2CCOCC2)cc1NC(=O)COC(=O)CNC(=O)c1ccc(C(C)(C)C)cc1 | 8.2 µM [falling, partial curve] |  |
| CC(C)(C)c1ccc(C(=O)CC(Sc2ccc(Cl)cc2)C(=O)O)cc1 (stereo unspecified) | 11.2 µM [falling, partial curve] |  |
| COc1ccc(NS(=O)(=O)c2cc(NC(=O)/C=C/c3cccs3)ccc2N2CCOCC2)cc1 | 7.31 µM [rising, partial curve] |  |

| SMILES | AC50 [1] | AC50 [2] |
| --- | --- | --- |
| Cc1ccccc1-c1nnc(SCC(=O)NCc2ccc3c(c2)OCO3)n1C | 32.6 µM [rising, single point] |  |
| O=C(NC(=S)NNC(=O)c1ccccc1O)c1ccc(F)cc1 | 11.2 µM [falling, partial curve] |  |
| CC1(C)c2ccccc2N2CC(=O)N(CC(N)=O)C21C (stereo unspecified) | 14.1 µM [rising, partial curve, poor fit] |  |
| Nc1cc(C(=O)O)c(N)c2c1C(=O)c1ccccc1C2=O | 4.47 µM [falling, partial curve] |  |
| Cc1sc2c(c1C)C(=O)NC(c1ccccc1F)N2 (stereo unspecified) | 2.51 µM [falling, full curve, poor fit] |  |
| CC(OC(=O)Cc1coc2ccc3ccccc3c12)C(=O)NC(N)=O (stereo unspecified) | 2.82 µM [falling, single point] |  |
| c1ccc(OCc2nn3c(-c4n[nH]c5c4CCC5)nnc3s2)cc1 | 11.2 µM [rising, partial curve, poor fit] |  |
| CCOC(=O)N/N=C\C=C\c1ccco1 |  | 29.1 µM [falling, partial curve, poor fit] |
| O=C1/C(=C/c2ccccc2)CCC1C1CCCC1 (stereo unspecified) | 9.2 µM [rising, partial curve] |  |
| CCN1C(=O)[C@H]2[C@@H](c3ccc(C)cc3)N3C(=O)N(c4cccc(F)c4)C(=O)[C@@]3(Cc3ccc(Cl)cc3)[C@H]2C1=O | 16.4 µM [falling, single point] |  |
| O=C(COC(=O)C1CCN(c2ccc(C(F)(F)F)cn2)CC1)Nc1ncc(Cl)cc1Cl | 1.46 µM [rising, partial curve] |  |
| O=C(NCc1nnc(SCc2ccccc2)n1-c1ccc(F)cc1)C12CC3CC(CC(C3)C1)C2 | 29.1 µM [falling, single point] |  |
| CCCc1cc(C(=O)NC(C)C2CCCO2)cs1 (stereo unspecified) | 12.6 µM [rising, partial curve, poor fit] |  |
| O=C(CCc1nc2ccccc2c(=O)[nH]1)N1CCCc2ccccc21 | 18.4 µM [falling, partial curve, poor fit] |  |
| Cc1oc2c(c1C(=O)Nc1ccc(C(=O)O)cc1)CCCC2 | 0.058 µM [rising, full curve, poor fit] |  |
| CCOc1ccc(Br)cc1C(=O)N/N=C/c1ccc([N+](=O)[O-])cc1 | 12.6 µM [falling, partial curve] |  |
| Cc1ccccc1NC(=O)CC1SC(=O)N(c2ccccc2)C1=O (stereo unspecified) | 29.1 µM [falling, single point] |  |
| Cc1cccc(OCc2nnc(SCC(=O)Nc3cc(C)on3)n2C)c1 | 25.9 µM [rising, partial curve, poor fit] |  |
| CCCCC(=O)Nc1ccccc1C(=O)OCC(=O)c1ccc2c(c1)OCCO2 | 0.82 µM [rising, full curve, poor fit] |  |
| O=C(NNc1ncnc2c1cnn2-c1ccccc1)c1cccs1 | 5.01 µM [falling, partial curve, poor fit] |  |
| COc1ccc(Cl)cc1S(=O)(=O)N1CCCC(C(=O)N2CCOCC2)C1 (stereo unspecified) | 7.08 µM [falling, full curve] |  |

| SMILES | AC50 [1] | AC50 [2] |
| --- | --- | --- |
| CC(=O)n1c2c(c3ccccc31)OC(N)=C(C#N)C2c1cccc(Cl)c1Cl (stereo unspecified) | 5.17 µM [falling, full curve] |  |
| Cc1cccn2cc(-c3cc4ccccc4oc3=O)nc12 | 28.2 µM [falling, single point] |  |
| NNC(=O)CN1C(CN2CCOCC2)=Nc2ccc(Br)cc2C1c1ccccc1 (stereo unspecified) |  | 35.5 µM [rising, partial curve, poor fit] |
| CN(NS(=O)(=O)c1ccc(Cl)cc1)c1ncc(C(F)(F)F)cc1Cl | 35.5 µM [rising, single point] |  |
| CC(C)c1ccc(N=C2N=C(N)c3ccccc32)cc1 | 5.62 µM [rising, full curve] |  |
| Cc1ccccc1NC(=O)c1c(O)c2cccc3c2n(c1=O)CC3 | 0.501 µM [falling, full curve] |  |
| COc1ccc(OC)c(NC(=O)CC2C(=O)NCCN2C(=O)Nc2cccc(Cl)c2)c1 (stereo unspecified) | 0.00461 µM [rising, full curve, poor fit] |  |
| COc1ccccc1N(C(C)=O)C1SC(=O)N(c2ccccc2)C1=O (stereo unspecified) | 4.47 µM [falling, partial curve, poor fit] |  |
| Cc1ccc(N(C(=O)Cn2nnc3ccccc32)C(C(=O)NCc2ccccc2)c2ccccn2)cc1 (stereo unspecified) | 16.4 µM [falling, partial curve, poor fit] |  |
| C/C(=N/NC(=O)Cn1nc2ccccc2n1)c1ccc(F)cc1 | 4.11 µM [rising, full curve, poor fit] |  |
| Cc1cccc(CSc2nc3c(c(-c4cccs4)c2C#N)CN(C)CC3)c1 | 18.4 µM [falling, partial curve, poor fit] | 9.2 µM [rising, partial curve, poor fit] |
| Cc1ccc(NC(=O)c2cccs2)cc1NC(=O)c1ccco1 | 20.6 µM [falling, partial curve] |  |
| CC(C)c1nc(SCC(=O)N2c3ccccc3CC2C)c2ccccc2n1 (stereo unspecified) | 29.1 µM [falling, single point] |  |
| COc1cccc(C(=O)Nc2nnc(SCC(=O)Nc3ccc(NC(C)=O)cc3)s2)c1 | 7.94 µM [falling, partial curve, poor fit] |  |
| CCN(CC)CCC(=O)N1c2ccccc2Sc2ccc(Cl)cc21 | 25.9 µM [falling, single point] |  |
| CCCN(CC(=O)Nc1ccccc1C)C(=O)C1CCN(C(=O)Nc2ccccc2)CC1 | 3.26 µM [rising, partial curve, poor fit] |  |
| CC(OC(=O)CCc1nc2ccccc2c(=O)[nH]1)C(=O)c1ccc(C(C)(C)C)cc1 (stereo unspecified) | 29.1 µM [falling, partial curve, poor fit] |  |
| CCc1ccc(C(=O)/C=C/c2cnn(C)c2C)s1 | 13 µM [falling, partial curve] |  |
| Cc1cccc(C)c1NC(=O)c1cc2c(=O)c3ccccc3oc2nc1C(F)(F)F | 3.98 µM [rising, single point] |  |

Reprinted at random: 3 compounds from above

| SMILES | AC50 [1] | AC50 [2] |
| --- | --- | --- |
| CCOC(=O)c1ccc(-c2csc(NC(=O)CN3CCC(C)CC3)n2)cc1 | 1.78 µM [rising, partial curve, poor fit] |  |
| C=CCN(CC(=O)NCc1ccc(OC)cc1)C(=O)c1csnn1 | 10.3 µM [rising, partial curve, poor fit] |  |
| O=C(NCc1nnc(SCc2ccccc2)n1-c1ccc(F)cc1)C12CC3CC(CC(C3)C1)C2 | 29.1 µM [falling, single point] |  |
